These are yes or no findings as the source states them, for the method shown. Binding seen in cells or lysates may run through a third protein. Here binding means that the protein was enriched with, or labelled near, the bait; the list need not be complete. Sequences can lack the tags named with a protein.
Biological target: T1, HA-tagged ZDHHC11 (UniProt Q9H8X9)
T1 sequence: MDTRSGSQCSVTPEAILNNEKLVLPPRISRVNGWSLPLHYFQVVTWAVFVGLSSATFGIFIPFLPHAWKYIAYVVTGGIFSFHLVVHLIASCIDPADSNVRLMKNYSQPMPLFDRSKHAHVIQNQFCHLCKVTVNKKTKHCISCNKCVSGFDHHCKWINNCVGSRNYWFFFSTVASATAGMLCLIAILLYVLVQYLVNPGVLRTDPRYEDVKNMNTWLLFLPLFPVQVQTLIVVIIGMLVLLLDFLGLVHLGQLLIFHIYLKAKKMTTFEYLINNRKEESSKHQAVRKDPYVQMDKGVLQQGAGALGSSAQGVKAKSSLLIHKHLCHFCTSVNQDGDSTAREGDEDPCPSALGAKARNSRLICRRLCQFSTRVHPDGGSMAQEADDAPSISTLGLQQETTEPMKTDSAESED
Assay: affinity purification with mass spectrometry

With “programmed cell death ligand 1 (PD-L1) (from UniProt Q9NZQ7 19-290)” the binding was “binds”.
